PubChem BioAssay AID1259314, Drosophila RNAi Screening Center | 2017

- Aim: 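Modifiers of manganese chloride toxicity in fly cells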 (primary screen)
- Cells: Drosophila S2R+ cells
- Reagents: long dsRNA against Drosophila genes
- Timing: 5 days (4 days knock-down, then 1 day metal exposure)
- Conditions: manganese chloride added to 15 mM for 24 hours
- Measurement: 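Luciferase ATP signal used as a proxy for viable cell number, reported as one averaged z-score per dsRNA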
- Reading the numbers: mean ATP z-score: higher = more ATP than the plate average, more viable cells under manganese
- Call rule: 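a mean ATP z-score past 1.5 in either direction is called active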
- Meaning of the calls: active = strong ATP change, up or down; inactive = no strong ATP change
Here is an unselected part of about 3,100 deposited reagents. 289 of them (9.3%) were called active. 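Active includes both higher and lower ATP than plate average; check the z-score sign for direction.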 Not given: the amount of reagent.

gene	dsRNA	mean ATP z-score	call
Tsp42El	DRSC06186	0.999	inactive
Tsp42Ei	DRSC06189	0.791	inactive
Tsp42Ei	DRSC26994	-0.0684	inactive
CG30471	DRSC07096	0.0507	inactive
clumsy	DRSC03111	-0.634	inactive
Remo	DRSC19710	-0.284	inactive

Continued; the last 2 above are carried over.
gene	dsRNA	mean ATP z-score	call
clumsy	DRSC03111	-0.634	inactive
Remo	DRSC19710	-0.284	inactive
KaiR1D	DRSC15516	-0.449	inactive
Alg7	DRSC02833	-1.34	inactive
Alg7	DRSC02834	0.986	inactive
side-VIII	DRSC23187	-1.17	inactive
side-VIII	DRSC28353	0.0267	inactive
Or67d	DRSC10158	-0.455	inactive
Or67d	DRSC39518	0.447	inactive
CG7091	DRSC12944	0.303	inactive
CG7091	DRSC16197	0.0555	inactive
